No constants are given. Whether binding was seen depends on the method and setting. Binding seen in cells or lysates may run through a third protein. Some results given as binding are weak or reduced against the parent protein; the word gives no strength.
T1: B cell adapter for phosphoinositide 3-kinase (BCAP) (mouse (endogenous in DC2.4 cells and BMDCs)) (UniProt Q9EQ32)
T1 sequence: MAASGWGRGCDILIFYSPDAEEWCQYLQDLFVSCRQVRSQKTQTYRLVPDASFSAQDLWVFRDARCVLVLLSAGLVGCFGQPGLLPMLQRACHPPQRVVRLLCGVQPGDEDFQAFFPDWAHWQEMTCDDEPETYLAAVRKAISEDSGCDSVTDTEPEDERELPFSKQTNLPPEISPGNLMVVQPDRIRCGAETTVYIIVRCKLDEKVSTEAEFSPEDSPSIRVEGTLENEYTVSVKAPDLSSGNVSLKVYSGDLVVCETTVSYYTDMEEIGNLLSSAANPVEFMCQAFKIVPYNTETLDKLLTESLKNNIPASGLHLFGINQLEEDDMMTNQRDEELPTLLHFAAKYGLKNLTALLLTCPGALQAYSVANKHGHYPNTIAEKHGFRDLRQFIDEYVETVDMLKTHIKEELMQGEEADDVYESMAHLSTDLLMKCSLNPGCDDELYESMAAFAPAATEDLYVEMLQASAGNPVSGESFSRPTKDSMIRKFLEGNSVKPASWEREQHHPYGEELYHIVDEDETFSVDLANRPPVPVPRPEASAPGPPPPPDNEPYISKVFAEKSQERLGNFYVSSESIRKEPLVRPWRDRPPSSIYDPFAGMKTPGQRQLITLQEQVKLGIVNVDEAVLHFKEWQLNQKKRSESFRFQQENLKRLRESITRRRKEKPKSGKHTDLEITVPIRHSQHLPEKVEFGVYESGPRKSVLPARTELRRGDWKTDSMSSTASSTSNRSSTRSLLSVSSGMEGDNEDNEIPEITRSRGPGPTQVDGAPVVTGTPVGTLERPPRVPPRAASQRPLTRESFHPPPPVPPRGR

Amino acid sequences for entries named in this document (tags omitted).
UniProt P22366: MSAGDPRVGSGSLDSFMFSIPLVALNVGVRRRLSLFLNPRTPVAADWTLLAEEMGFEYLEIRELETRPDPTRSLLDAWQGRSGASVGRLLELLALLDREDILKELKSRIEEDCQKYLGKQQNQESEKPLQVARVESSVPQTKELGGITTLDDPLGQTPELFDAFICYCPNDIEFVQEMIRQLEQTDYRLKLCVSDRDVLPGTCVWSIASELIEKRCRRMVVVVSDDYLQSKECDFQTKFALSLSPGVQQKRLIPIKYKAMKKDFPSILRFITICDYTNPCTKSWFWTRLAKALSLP
UniProt P26450: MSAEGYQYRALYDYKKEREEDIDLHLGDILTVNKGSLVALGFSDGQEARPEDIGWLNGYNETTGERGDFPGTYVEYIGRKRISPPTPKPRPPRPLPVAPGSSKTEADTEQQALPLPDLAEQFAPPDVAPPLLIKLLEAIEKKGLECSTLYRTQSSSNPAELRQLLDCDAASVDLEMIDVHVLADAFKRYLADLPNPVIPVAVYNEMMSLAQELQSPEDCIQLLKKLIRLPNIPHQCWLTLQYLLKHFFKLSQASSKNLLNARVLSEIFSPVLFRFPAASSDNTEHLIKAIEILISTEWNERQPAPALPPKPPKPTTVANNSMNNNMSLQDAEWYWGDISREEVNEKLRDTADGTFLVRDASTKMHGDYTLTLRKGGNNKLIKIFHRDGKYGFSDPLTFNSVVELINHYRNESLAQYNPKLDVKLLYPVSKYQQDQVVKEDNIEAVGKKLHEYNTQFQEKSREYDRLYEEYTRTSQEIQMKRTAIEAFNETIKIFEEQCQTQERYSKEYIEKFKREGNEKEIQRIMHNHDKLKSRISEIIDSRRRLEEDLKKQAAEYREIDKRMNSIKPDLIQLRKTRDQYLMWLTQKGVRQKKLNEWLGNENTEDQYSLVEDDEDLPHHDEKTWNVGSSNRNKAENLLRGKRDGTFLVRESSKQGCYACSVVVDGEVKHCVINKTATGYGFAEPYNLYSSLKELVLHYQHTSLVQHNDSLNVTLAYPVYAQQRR


How the values were obtained:
[1] = molecular target: T1, B cell adapter for phosphoinositide 3-kinase (BCAP) (mouse (endogenous in DC2.4 cells and BMDCs)); experiment: co-IP; BMDCs, 100 ng/ml LPS for the indicated times; lysate immunoprecipitated with anti-BCAP; immunoblot with anti-MyD88 and anti-p85α
[2] = molecular target: T1, B cell adapter for phosphoinositide 3-kinase (BCAP) (mouse (endogenous in DC2.4 cells and BMDCs)); experiment: condition: only early after stimulation with 100 ng/ml LPS; co-IP; BMDCs early after stimulation with 100 ng/ml LPS; lysate immunoprecipitated with anti-BCAP; immunoblot with anti-MyD88
[3] = molecular target: MyD88 (mouse (endogenous in DC2.4 cells and BMDCs)) (UniProt P22366); experiment: condition: only early after stimulation with 1 μg/ml LPS; co-IP; DC2.4 cells early after stimulation with 1 μg/ml LPS; weak RIPA lysate; immunoprecipitated with anti-MyD88; immunoblot with anti-BCAP
[4] = molecular target: MyD88 (mouse (endogenous in DC2.4 cells and BMDCs)) (UniProt P22366); experiment: co-IP; DC2.4 cells, 1 μg/ml LPS for the indicated times (also Nck1-knockdown or control cells); weak RIPA lysate (0.5% Triton X-100, 120 mM NaCl, 50 mM Tris-HCl pH 7.5); immunoprecipitated with anti-MyD88, anti-p85α or anti-Nck1 overnight at 4°C, protein A/G beads; immunoblot with anti-BCAP
[5] = molecular target: p85α subunit of PI3K (mouse (endogenous in DC2.4 cells and BMDCs)) (UniProt P26450); experiment: as above

binding [1] | binding [2] | binding [3] | binding [4] | binding [5] | Molecule
binds | no binding | – | – | – | MyD88 (from UniProt P22366 1-296)
binds | – | – | – | – | p85α subunit of PI3K (from UniProt P26450 1-724)
– | – | no binding | binds | binds | B cell adapter for phosphoinositide 3-kinase (BCAP) (protein, UniProt Q9EQ32 1-811) MAASGWGRGCDILIFYSPDAEEWCQYLQDLFVSCRQVRSQKTQTYRLVPDASFSAQDLWVFRDARCVLVLLSAGLVGCFGQPGLLPMLQRACHPPQRVVRLLCGVQPGDEDFQAFFPDWAHWQEMTCDDEPETYLAAVRKAISEDSGCDSVTDTEPEDERELPFSKQTNLPPEISPGNLMVVQPDRIRCGAETTVYIIVRCKLDEKVSTEAEFSPEDSPSIRVEGTLENEYTVSVKAPDLSSGNVSLKVYSGDLVVCETTVSYYTDMEEIGNLLSSAANPVEFMCQAFKIVPYNTETLDKLLTESLKNNIPASGLHLFGINQLEEDDMMTNQRDEELPTLLHFAAKYGLKNLTALLLTCPGALQAYSVANKHGHYPNTIAEKHGFRDLRQFIDEYVETVDMLKTHIKEELMQGEEADDVYESMAHLSTDLLMKCSLNPGCDDELYESMAAFAPAATEDLYVEMLQASAGNPVSGESFSRPTKDSMIRKFLEGNSVKPASWEREQHHPYGEELYHIVDEDETFSVDLANRPPVPVPRPEASAPGPPPPPDNEPYISKVFAEKSQERLGNFYVSSESIRKEPLVRPWRDRPPSSIYDPFAGMKTPGQRQLITLQEQVKLGIVNVDEAVLHFKEWQLNQKKRSESFRFQQENLKRLRESITRRRKEKPKSGKHTDLEITVPIRHSQHLPEKVEFGVYESGPRKSVLPARTELRRGDWKTDSMSSTASSTSNRSSTRSLLSVSSGMEGDNEDNEIPEITRSRGPGPTQVDGAPVVTGTPVGTLERPPRVPPRAASQRPLTRESFHPPPPVPPRGR
